This note sets out measurements from the supplement of paper PMC9135407.

The test concerns primary human hepatic stellate cells (donor 1). Nature of the test: percent Bodipy-positive cells; higher = more lipid droplet accumulation. The settings on record: 48 h.
Setting [1] is: library stock concentration: 10 mM.
Setting [2] is: library stock concentration: 3.33 mM.
[3] abbreviates: library stock concentration: 80 uM.
The mark [4] stands for this setting: library stock concentration: 400 uM.
Setting [5] is: library stock concentration: 2 mM.
Setting [6] is: library stock concentration: 1 mM.

Where “and” joins values, the source holds several entries; their conditions need not be identical. Equal values may be shown once. Where a name gives a salt, the structure may show the parent alone. ± gives the standard deviation of the averaged measurements. The list shows a part of the results. Baselines shift from plate to plate; read single values as rough.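 Assay uses culture-activated primary human stellate myofibroblasts; lipid droplet recovery indicates inactivation. Measured: proportion of Hoechst-counted cells over a plate-specific Bodipy cutoff, duplicate wells, DMSO and nortriptyline as per-plate negative and positive controls. A hit scores, control-normalized, above the plate's top-tenth-percentile nortriptyline wells or ranks among its three best wells. Final well concentrations not reported.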

In the case of `O=c1[nH]cnc2c1ncn2[C@H]1CC[C@@H](CO)O1` [Didanosine], the “percent Bodipy-positive cells” value was 24.7 ± 4.3%.
`Fc1ccc([C@@H]2CCNC[C@H]2COc2ccc3c(c2)OCO3)cc1` [Paroxetine]: the “percent Bodipy-positive cells” value under setting [1] worked out at 99.83 ± 0.23%.
Same read-out and setting: next, `Fc1ccc([C@@H]2CCNC[C@H]2COc2ccc3c(c2)OCO3)cc1` [Paroxetine hydrochloride hemihydrate (MW = 374.83)]: 98.3 ± 1.1%.
Regarding `Fc1ccc([C@@H]2CCNC[C@H]2COc2ccc3c(c2)OCO3)cc1` [Paroxetine hydrochloride], under setting [1], the “percent Bodipy-positive cells” value was determined as 80.5 ± 5.7%.
Still for that read-out and setting: next, `Fc1ccc([C@@H]2CCNC[C@H]2COc2ccc3c(c2)OCO3)cc1` [Paroxetine HCl]: 93.88 ± 0.18%; `Nc1nc(O)c2ncn(CCC(CO)CO)c2n1`: 8.61 ± 1.7%.
Regarding `Nc1nc(O)c2ncn(CCC(CO)CO)c2n1` [Penciclovir], the “percent Bodipy-positive cells” value was determined as 11.5 ± 2.7% under setting [2], 5.23 ± 1.6% (library stock concentration: 7.9 mM) and 31.3 ± 12% under setting [1].
With `Clc1ccc(Nc2nnc(Cc3ccncc3)c3ccccc23)cc1` [Vatalanib (PTK787) 2HCl], the “percent Bodipy-positive cells” value is, setting by setting: under setting [2], 7.3 ± 1.8%; under setting [1], 14.3 ± 1.1%.
With `Clc1ccc(Nc2nnc(Cc3ccncc3)c3ccccc23)cc1` [Vatalanib], for the setting “library stock concentration: 5.8 mM”, the “percent Bodipy-positive cells” value was 7.19 ± 0.22%.
As to `Cn1cc(-c2ccc3nnc(Sc4ccc5ncccc5c4)n3n2)cn1`, the “percent Bodipy-positive cells” value by setting is: under setting [3], 9.43 ± 1.4%; under setting [4], 10.1 ± 1.8%; under setting [5], 8.51 ± 3.3%; under setting [2], 7.41 ± 1.6%; under setting [1], 17.4% and 7.41%.
In the case of `O=C1NC(=O)/C(=C/c2cccc(C(F)(F)F)c2)S1`, the “percent Bodipy-positive cells” value reads like this: under setting [4], 13.2 ± 7%; under setting [5], 14.4 ± 0.74%; under setting [2], 26.8 ± 0.62%; under setting [1], 26% and 31.8%.
As to `Cc1cc(O)c2c(c1)C(=O)c1cc(O)cc(O)c1C2=O` [Emodin], the “percent Bodipy-positive cells” value under setting [2] worked out at 7.67 ± 1.6%; the “percent Bodipy-positive cells” value under setting [1] is 11.7% and 27%.
With `COC(=O)c1ccc2c(C(=Nc3ccc(N(C)C(=O)CN4CCN(C)CC4)cc3)c3ccccc3)c(O)[nH]c2c1`, the “percent Bodipy-positive cells” value stood at 39.7 ± 1.7% under setting [3], 58.1 ± 7.4% under setting [4] and 35.5 ± 1.9% under setting [5].
As to `FC(F)(F)c1cccc(-c2noc(-c3cc(-c4ccccc4)c(C(F)(F)F)s3)n2)c1`, the “percent Bodipy-positive cells” value was found to be 8.06 ± 0.8% under setting [6] and 9.38 ± 2.1% under setting [1].
Consider `CN1CCC(OC(c2ccccc2)c2ccccc2)CC1` [Diphenylpyraline hydrochloride], for which the “percent Bodipy-positive cells” value is 37 ± 4.2%. In addition, where the note is “library stock concentration: 6.3 mM”, the “percent Bodipy-positive cells” value was found to be 22 ± 6.2%. Moreover, the “percent Bodipy-positive cells” value under setting [1] turned out to be 38.6 ± 1.1%.
As to `CCOC(=O)[C@H](CCc1ccccc1)N[C@@H](C)C(=O)N1Cc2cc(OC)c(OC)cc2C[C@H]1C(=O)O` [Moexipril HCl], the “percent Bodipy-positive cells” value by setting is: under setting [2], 8.1 ± 0.34%; under setting [1], 16.5 ± 0.92%.
For the compound `CCOC(=O)[C@H](CCc1ccccc1)N[C@@H](C)C(=O)N1Cc2cc(OC)c(OC)cc2C[C@H]1C(=O)O` [Moexipril hydrochloride], the “percent Bodipy-positive cells” value under setting [1] worked out at 5.4 ± 1.1%.
On to `O=C(Oc1cccc2cccnc12)c1ccccc1` [Benzoxiquine], for which the “percent Bodipy-positive cells” value (library stock concentration: 8 mM) was 15.5 ± 10%.
As to `C/C=C1\[C@H]2C=C(C)C[C@]1(N)c1ccc(=O)[nH]c1C2`, the “percent Bodipy-positive cells” value under setting [1] stood at 10.2 ± 3%.
With `C/C=C1\[C@H]2C=C(C)C[C@]1(N)c1ccc(=O)[nH]c1C2` [(-)-Huperzine A], the “percent Bodipy-positive cells” value (library stock concentration: 20.6 mM) came to 39.8 ± 11%.
As for `CN1CCN(C2CCN(C(=O)Nc3cc(Oc4ccc(NC(=O)C5(C(=O)Nc6ccc(F)cc6)CC5)c(F)c4)ccn3)CC2)CC1` [Golvatinib (E7050)], the “percent Bodipy-positive cells” value under setting [1] turned out to be 97.7 ± 1%.
Regarding `C[N+](C)(C)CCO.[Cl-]` [Choline chloride], the “percent Bodipy-positive cells” value runs as follows: under setting [1], 38.1 ± 8.1%; (library stock concentration: 14.3 mM) 12.8 ± 5.7%.
Regarding `C[N+](C)(C)CCO.[Cl-]` [Choline Chloride], the “percent Bodipy-positive cells” value under setting [2] was 12 ± 4.1% and the “percent Bodipy-positive cells” value under setting [1] was 34.2 ± 0.56%.
`O=c1[nH]cnc2[nH]ncc12` [Allopurinol Sodium]: the “percent Bodipy-positive cells” value under setting [2] is 9.79 ± 4.6% and the “percent Bodipy-positive cells” value under setting [1] came to 13.2 ± 1.3%.
Turning to `Nc1ccc2c3c(cccc13)C(=O)NC2=O` [4-Amino-1,8-naphthalimide], where the note is “library stock concentration: 23.6 mM”, the “percent Bodipy-positive cells” value came out at 74.8 ± 1.3%.
For the compound `CCCCC/C=C/C/C=C/CCCCCCCC(=O)O` [Linoelaidic Acid], the “percent Bodipy-positive cells” value under setting [6] came to 9.95 ± 0.85%.
Consider `O=C(O)CSCC(=O)NC1CCSC1=O` (configuration not stated), for which the “percent Bodipy-positive cells” value under setting [1] came to 26.4 ± 4.2%.
In the case of `O=C(O)CSCC(=O)NC1CCSC1=O` (configuration not stated) [Erdosteine], the “percent Bodipy-positive cells” value is, setting by setting: under setting [2], 5.69 ± 2.2%; under setting [1], 13.9 ± 0.24%.
On the same counts, the results for `Cc1cc2c(F)c(Oc3ncnn4cc(OC[C@@H](C)O)c(C)c34)ccc2[nH]1` are 5.26 ± 1.2% and 17.5 ± 0.24%.
As to `Cc1cc2c(F)c(Oc3ncnn4cc(OC[C@@H](C)O)c(C)c34)ccc2[nH]1` [Brivanib], the “percent Bodipy-positive cells” value under setting [3] came to 10.6 ± 4.8%, the “percent Bodipy-positive cells” value under setting [4] worked out at 12.9 ± 1.3%, the “percent Bodipy-positive cells” value under setting [5] was found to be 16.6 ± 5.5% and the “percent Bodipy-positive cells” value under setting [1] turned out to be 12.2 ± 3.3%.
For the compound `O=C1C(SCCO)=C(SCCO)C(=O)c2ccccc21`, the “percent Bodipy-positive cells” value under setting [1] turned out to be 100%.
`CCCCCCCC/C=C\CCCCCCCC(=O)OCC(CO)OC(=O)CCCCCCC/C=C\CCCCCCCC` (configuration not stated) [1,2-Dioleoyl-glycerol (18:1)]: under setting [6], the “percent Bodipy-positive cells” value worked out at 6.76 ± 4%.
As to `COc1cc(/C=C/C(=O)CC(=O)/C=C/c2ccc(O)c(OC)c2)ccc1O` [Curcumin], the “percent Bodipy-positive cells” value reads like this: under setting [6], 6.28 ± 2.8%; under setting [2], 13 ± 2.2%; under setting [1], 21.4 ± 10%; (library stock concentration: 13.6 mM) 92.9 ± 2.2%.
Take `Cc1cc2nc3c(=O)[nH]c(=O)nc-3n(CC(O)C(O)C(O)COP(=O)(O)O)c2cc1C` (configuration not stated): the “percent Bodipy-positive cells” value under setting [1] is 33.7 ± 1.9%.
With `CC(C)CN(C[C@@H](O)[C@H](Cc1ccccc1)NC(=O)O[C@H]1CO[C@H]2OCC[C@H]21)S(=O)(=O)c1ccc(N)cc1` [Darunavir Ethanolate], the “percent Bodipy-positive cells” value by setting is: under setting [2], 9.55 ± 4.7%; under setting [1], 17.2 ± 1.9%.
`CCC(O)/C=C/C=O` (configuration not stated) [4-hydroxy Hexenal]: the “percent Bodipy-positive cells” value under setting [6] is 15.1 ± 2%.
As to `NCC[C@H](O)C(=O)N[C@@H]1C[C@H](N)[C@@H](O[C@H]2O[C@H](CN)[C@@H](O)[C@H](O)[C@H]2O)[C@H](O)[C@H]1O[C@H]1O[C@H](CO)[C@@H](O)[C@H](N)[C@H]1O` [Amikacin sulfate], the “percent Bodipy-positive cells” value by setting is: (library stock concentration: 2.6 mM) 2.1 ± 0.6%; under setting [1], 18.1 ± 5.2%.
On to `NCC[C@H](O)C(=O)N[C@@H]1C[C@H](N)[C@@H](O[C@H]2O[C@H](CN)[C@@H](O)[C@H](O)[C@H]2O)[C@H](O)[C@H]1O[C@H]1O[C@H](CO)[C@@H](O)[C@H](N)[C@H]1O` [Amikacin hydrate], for which the “percent Bodipy-positive cells” value was 30.9 ± 1.3%.
For the compound `COc1ccc(CCN(C)CCCOc2ccc(S(=O)(=O)c3c(C(C)C)c4ccccc4n3C)cc2)cc1OC`, the “percent Bodipy-positive cells” value under setting [1] was 100%.
As to `CCCCCCN(CCCCCC)C(=O)Cc1c(-c2ccc(Cl)cc2)[nH]c2ccc(Cl)cc12`, the “percent Bodipy-positive cells” value under setting [1] was found to be 7.7 ± 1.4%.
On the same count and under the same terms, then `O=C1c2cccc3c2[C@H](CCC3)CN1[C@@H]1CN2CCC1CC2`, with 39.2 ± 7.2%.
In the case of `COc1c(C=O)c(O)cc2c1C(=O)c1ccccc1C2=O` [Damnacanthal], the “percent Bodipy-positive cells” value (library stock concentration: 17.7 mM) was 14.28 ± 0.12%.
As for `C/C(=N\NC(=O)C1C(=O)NCC1c1ccccc1)c1cccc(Br)c1` (configuration not stated), under setting [1], the “percent Bodipy-positive cells” value worked out at 7.53 ± 2%.
Same read-out and setting: then `NCCCCCCCCCCNS(=O)(=O)c1cccc2c(Cl)cccc12` [A-7 hydrochloride], with 94.8 ± 3.2%; and `CN(C)[C@@H]1C(=O)C(C(N)=O)=C(O)[C@@]2(O)C(=O)C3=C(O)c4c(O)ccc(Cl)c4[C@@H](O)[C@H]3C[C@@H]12` [Demeclocycline hydrochloride], with 54.8 ± 13%.
`CN(C)[C@@H]1C(=O)C(C(N)=O)=C(O)[C@@]2(O)C(=O)C3=C(O)c4c(O)ccc(Cl)c4[C@@H](O)[C@H]3C[C@@H]12` [Demeclocycline HCl]: the “percent Bodipy-positive cells” value reads like this: under setting [2], 14.4 ± 8.5%; under setting [1], 32.9 ± 0.65%.
